# From article PMC3369947
# These are yes or no findings as the source states them, for the method shown. Binding seen in cells or lysates may run through a third protein. Some results given as binding are weak or reduced against the parent protein; the word gives no strength. Tags and fused reporters may be left off the sequences shown.
# T1: HA-tagged Mum2 (S. cerevisiae) (UniProt P38236)
# T1 sequence: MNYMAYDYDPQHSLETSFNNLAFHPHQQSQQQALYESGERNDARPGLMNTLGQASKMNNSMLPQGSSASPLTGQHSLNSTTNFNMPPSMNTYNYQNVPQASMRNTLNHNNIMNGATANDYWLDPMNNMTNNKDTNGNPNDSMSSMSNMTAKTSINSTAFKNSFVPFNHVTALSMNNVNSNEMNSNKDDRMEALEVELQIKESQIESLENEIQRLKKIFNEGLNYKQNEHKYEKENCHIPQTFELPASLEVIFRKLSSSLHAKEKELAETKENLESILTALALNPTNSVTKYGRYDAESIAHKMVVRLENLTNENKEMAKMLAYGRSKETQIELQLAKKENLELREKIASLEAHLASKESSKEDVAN
# T2: HA-tagged Slz1 (S. cerevisiae) (UniProt P40167)
# T2 sequence: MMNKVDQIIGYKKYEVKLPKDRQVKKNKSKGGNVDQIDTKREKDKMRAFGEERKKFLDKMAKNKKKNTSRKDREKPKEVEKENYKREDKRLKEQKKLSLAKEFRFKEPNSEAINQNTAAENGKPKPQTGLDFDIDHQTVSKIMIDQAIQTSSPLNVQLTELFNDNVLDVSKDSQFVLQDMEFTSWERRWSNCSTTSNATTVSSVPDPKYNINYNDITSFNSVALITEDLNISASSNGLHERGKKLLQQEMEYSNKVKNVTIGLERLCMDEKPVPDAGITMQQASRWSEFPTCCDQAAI
# B1: myc-tagged Ime4 (enzyme, UniProt P41833 1-600)
# chain: MINDKLVHFLIQNYDDILRAPLSGQLKDVYSLYISGGYDDEMQKLRNDKDEVLQFEQFWNDLQDIIFATPQSIQFDQNLLVADRPEKIVYLDVFSLKILYNKFHAFYYTLKSSSSSCEEKVSSLTTKPEADSEKDQLLGRLLGVLNWDVNVSNQGLPREQLSNRLQNLLREKPSSFQLAKERAKYTTEVIEYIPICSDYSHASLLSTSVYIVNNKIVSLQWSKISACQENHPGLIECIQSKIHFIPNIKPQTDISLGDCSYLDTCHKLNTCRYIHYLQYIPSCLQERADRETASENKRIRSNVSIPFYTLGNCSAHCIKKALPAQWIRCDVRKFDFRVLGKFSVVIADPAWNIHMNLPYGTCNDIELLGLPLHELQDEGIIFLWVTGRAIELGKESLNNWGYNVINEVSWIKTNQLGRTIVTGRTGHWLNHSKEHLLVGLKGNPKWINKHIDVDLIVSMTRETSRKPDELYGIAERLAGTHARKLEIFGRDHNTRPGWFTIGNQLTGNCIYEMDVERKYQEFMKSKTGTSHTGTKKIDKKQPSKLQQQHQQQYWNNMDMGSGKYYAEAKQNPMNQKHTPFESKQQQKQQFQTLNNLYFAQ
# How the values were obtained:
# [1] = target: T1, HA-tagged Mum2 (S. cerevisiae); assay: co-IP; extracts of meiotic culture 3 hours after meiotic induction; lysis buffer 150 mM NaCl, 50 mM Tris pH 7.5, 1% NP40; HA-conjugated agarose beads, three hours; Western with anti-myc; myc-Ime4 strain without HA-tags as control
# [2] = target: T2, HA-tagged Slz1 (S. cerevisiae); assay: as above
binder,measurement,setting,value
B1,binding,[1],binds
same,binding,[2],binds
